The source of these data is PMC4695161.

Sequences of proteins named here, by UniProt entry; tags and fusion partners are left off.
UniProt P54368: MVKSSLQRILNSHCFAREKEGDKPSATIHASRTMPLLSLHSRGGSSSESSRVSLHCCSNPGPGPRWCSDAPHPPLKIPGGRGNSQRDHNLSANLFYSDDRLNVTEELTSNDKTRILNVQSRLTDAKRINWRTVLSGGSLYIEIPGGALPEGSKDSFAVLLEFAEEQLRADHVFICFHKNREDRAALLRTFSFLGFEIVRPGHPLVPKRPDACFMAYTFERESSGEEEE

The target of experiment [1] is human antizyme (AZ), wild type (human) (UniProt P54368). The experiment is described as follows: AUC; sedimentation velocity; AZ pre-incubated 1 hour with ODC (or CCND1) at molar ratio 1, then the third protein (CCND1 or ODC) at varied concentration; 30 mM Tris-HCl pH 7.4, 50 mM NaCl, 20°C; both purified.
For experiment [2] the target is unchanged. The experiment is described as follows: AUC; sedimentation velocity, size distribution of AZ with ODC (or AZI) and CCND1, pre-incubated in either order or co-incubated; molar ratio of AZ to each protein 1; 30 mM Tris-HCl pH 7.4, 50 mM NaCl, 20°C; both purified.

Results are given in words; binding and its absence hold for the method and conditions named. Some binding calls cover weakened binding; strength is not graded here.

B1: human ornithine decarboxylase (ODC) (enzyme, UniProt P11926 1-461)
chain: MNNFGNEEFDCHFLDEGFTAKDILDQKINEVSSSDDKDAFYVADLGDILKKHLRWLKALPRVTPFYAVKCNDSKAIVKTLAATGTGFDCASKTEIQLVQSLGVPPERIIYANPCKQVSQIKYAANNGVQMMTFDSEVELMKVARAHPKAKLVLRIATDDSKAVCRLSVKFGATLRTSRLLLERAKELNIDVVGVSFHVGSGCTDPETFVQAISDARCVFDMGAEVGFSMYLLDIGGGFPGSEDVKLKFEEITGVINPALDKYFPSDSGVRIIAEPGRYYVASAFTLAVNIIAKKIVLKEQTGSDDEDESSEQTFMYYVNDGVYGSFNCILYDHAHVKPLLQKRPKPDEKYYSSSIWGPTCDGLDRIVERCDLPEMHVGDWMLFENMGAYTVAAASTFNGFQRPTIYYVMSGPAWQLMQQFQNPDFPPEVEEQDASTLPVSCAWESGMKRHRAACASASINV
For the molecule B1, the binding entry in experiment [1] and in experiment [2] was “binds” in each case.
